The full ranking holds about 1,100 compounds; the median of “Wnt reporter firefly/Renilla luciferase ratio relative to plate median” is about 1.1, and the highest 2% start at about 1.6. The entries are a selection whose mix differs from that of the whole data set.
Tested on: HEK293T (UBE3A T485A transfected, BAR Wnt reporter)
Test: Wnt reporter firefly/Renilla luciferase ratio relative to plate median (fold (linear ratio)); higher = more Wnt/beta-catenin reporter activation
Conditions: 24 h
Method in brief: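 Chemicals were robotically dosed at 0.01–100 uM for 24 h onto HEK293T cells, starting four hours after transfection with a BAR firefly luciferase Wnt reporter, TK-Renilla and an expression plasmid. The cells had been plated at 4500 cells/well in DMEM with 10% FBS at 37°C and 5% CO2. Following a Dual-Glo luciferase readout, the firefly/Renilla ratio served as the Wnt activity measure and raw Renilla as the cell health measure, both median-centred on each plate. Each value is the mean of four biological replicates.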

Row | Structure (SMILES) | Wnt reporter firefly/Renilla luciferase ratio (concentration: 0.1 uM) | Wnt reporter firefly/Renilla luciferase ratio (concentration: 1 uM) | Wnt reporter firefly/Renilla luciferase ratio (concentration: 10 uM) | Wnt reporter firefly/Renilla luciferase ratio (concentration: 100 uM) | Wnt reporter firefly/Renilla luciferase ratio (concentration: 0.01 uM)
1 | O=c1n(CC2CO2)c(=O)n(CC2CO2)c(=O)n1CC1CO1 (stereo not drawn) [Triglycidyl isocyanurate] | 0.824 | 0.831 | 0.784 | – | –
2 | CN(C)CCOC(c1ccccc1)c1ccccc1.Cl [Diphenhydramine hydrochloride] | 0.983 | 0.773 | 1.04 | 0.49 | –
3 | Clc1ccccc1C(c1ccccc1)(c1ccccc1)n1ccnc1 [Clotrimazole] | 1.06 | 1.01 | 0.928 | 1.34 | –
4 | CCN(Cc1cccnc1)C(=O)c1cccc(Cl)c1[C@]1(C)C(=O)N(Cc2ccc(OC)cc2OC)c2ccc(Cl)cc21.Cl | 0.938 | 0.858 | 0.412 | – | –
5 | O=C(O)Cc1cc(I)c(Oc2ccc(O)c(I)c2)c(I)c1 [Tiratricol] | 1.21 | 0.759 | 0.202 | 0.201 | –
6 | CCOC(=O)C(C)Oc1ccc(Oc2nc3ccc(Cl)cc3o2)cc1 (stereo not drawn) [Fenoxaprop-ethyl] | 1.37 | 0.888 | 0.884 | 0.813 | 1.14
7 | O=C(O)c1cccc(C[C@@H]2COc3ccc(OCc4nc5cc(F)ccc5s4)cc3[C@@H]2O)c1 | 0.972 | 1.2 | 1.07 | 1.47 | –
8 | CC(=O)NC1(c2cccc(F)c2)CCN(CC[C@@]2(c3ccc(Cl)c(Cl)c3)CN(c3ccccc3)C(=O)CO2)CC1.O=C(O)CCC(=O)O | 1.1 | 0.864 | 0.665 | – | –
9 | Cc1oc(-c2ccccc2)nc1CCOc1ccc(C[C@H](Nc2ccccc2C(=O)c2ccccc2)C(=O)O)cc1 [Farglitazar] | 1.36 | 1.48 | 0.991 | 1.19 | –
10 | Cc1ccc2ncccc2c1 [6-Methylquinoline] | 0.931 | 0.836 | 1.29 | 1.81 | –
11 | CCCCCCCCCCCCN1CCCC1=O [1-Dodecyl-2-pyrrolidinone] | 1.09 | 1.14 | 1.19 | 1.13 | –
12 | CCCCN(CCCC)CCCC [Tributylamine] | 0.962 | 0.958 | 0.941 | 1.08 | –
13 | C[C@](N)(Cc1ccc(O)c(O)c1)C(=O)O.C[C@](N)(Cc1ccc(O)c(O)c1)C(=O)O.O.O.O [Methyldopa sesquihydrate] | 1.33 | 0.914 | 0.891 | 1.05 | –
14 | CCN(CC)CCOc1ccc(C(=C(Cl)c2ccccc2)c2ccccc2)cc1.O=C(O)CC(O)(CC(=O)O)C(=O)O [Clomiphene citrate (1:1)] | 0.955 | 0.989 | 1.08 | 1.12 | –
15 | CCCOC(=O)NCCCN(C)C.Cl [Propamocarb hydrochloride] | 1.07 | 0.962 | 0.884 | 1.11 | 0.767
16 | CC(=O)O.COCCOc1cc2cc(C(=O)NC3CCN(C(C)C)CC3)n(CC(=O)Nc3ccc(Cl)cn3)c2cn1 | 0.74 | 0.724 | 1.15 | 0.297 | –
17 | CNC(CC(=O)O)C(=O)O (stereo not drawn) | 0.981 | 1.17 | 0.957 | 1.4 | 0.99
18 | O=C(O)c1ccc([N+](=O)[O-])cc1 [4-Nitrobenzoic acid] | 1.36 | 1.16 | 1.28 | 1.31 | –
19 | Cc1cccc(Nc2cc(Cl)nc(SCC(=O)O)n2)c1C [Pirinixic acid] | 1.28 | 1.09 | 1.16 | 1.17 | –
20 | CC(=O)c1ccccc1 [Acetophenone] | 1.48 | 1.03 | 1.27 | 1.46 | –
21 | O=[N+]([O-])c1ccc(O)cc1 [4-Nitrophenol] | 1.19 | 0.935 | 1.31 | 0.927 | –

Among those listed so far, 2 have a nitro group on carbon.
Row | Structure (SMILES) | Wnt reporter firefly/Renilla luciferase ratio (concentration: 0.1 uM) | Wnt reporter firefly/Renilla luciferase ratio (concentration: 1 uM) | Wnt reporter firefly/Renilla luciferase ratio (concentration: 10 uM) | Wnt reporter firefly/Renilla luciferase ratio (concentration: 100 uM) | Wnt reporter firefly/Renilla luciferase ratio (concentration: 0.01 uM)
18 | O=C(O)c1ccc([N+](=O)[O-])cc1 [4-Nitrobenzoic acid] | 1.36 | 1.16 | 1.28 | 1.31 | –
21 | O=[N+]([O-])c1ccc(O)cc1 [4-Nitrophenol] | 1.19 | 0.935 | 1.31 | 0.927 | –

Following part:

Row | Structure (SMILES) | Wnt reporter firefly/Renilla luciferase ratio (concentration: 0.1 uM) | Wnt reporter firefly/Renilla luciferase ratio (concentration: 1 uM) | Wnt reporter firefly/Renilla luciferase ratio (concentration: 10 uM) | Wnt reporter firefly/Renilla luciferase ratio (concentration: 100 uM) | Wnt reporter firefly/Renilla luciferase ratio (concentration: 0.01 uM)
22 | Cc1ccc(C)c(O)c1 [2,5-Dimethylphenol] | 0.904 | 0.928 | 1.07 | 1.26 | –
23 | Cc1[nH]cnc1C[C@H]1CCc2c(C)c3ccccc3n2C1=O.Cl [Fabesetron hydrochloride] | 0.929 | 1 | 0.724 | – | –
24 | C#CC(O)C(CC)CCCC (stereo not drawn) [4-Ethyloct-1-yn-3-ol] | 1.08 | 1.04 | 1.02 | 1.11 | –
25 | OC1CCCCC1 [Cyclohexanol] | 1.31 | 1.03 | 1.07 | 1.36 | –
26 | CCCCC(CC)CN1C(=O)C2C3C=CC(C3)C2C1=O (stereo not drawn) | 0.836 | 0.924 | 1.23 | 0.306 | 1.46
27 | Nc1ccc(S(=O)(=O)c2ccc(N)cc2)cc1 [Dapsone] | 1.22 | 1.05 | 0.993 | 0.868 | –
28 | c1ccc2occc2c1 [2,3-Benzofuran] | 1.25 | 1.35 | 1.18 | 1.11 | –
29 | CN(C)[C@@H]1C(O)=C(C(N)=O)C(=O)[C@@]2(O)C(O)=C3C(=O)c4c(O)cccc4[C@@](C)(O)[C@H]3[C@H](O)[C@@H]12.Cl [Oxytetracycline hydrochloride] | 1.09 | 1.03 | 0.562 | 0.0778 | –
30 | CC(C)OC(=O)C(C)(C)Oc1ccc(C(=O)c2ccc(Cl)cc2)cc1 [Fenofibrate] | 1.17 | 1.18 | 1.21 | 1.27 | –
31 | CC(C)CC(C)(O)C#CC(C)(O)CC(C)C (stereo not drawn) [2,4,7,9-Tetramethyl-5-decyne-4,7-diol] | 0.994 | 1.13 | 1.03 | 0.398 | –
32 | COc1ccc2sc(C(=O)Nc3nnn[n-]3)c(OC(C)C)c2c1.[Na+] | 1.08 | 1.08 | 1.35 | – | –
33 | COC(=O)c1ccc(O)cc1 [Methylparaben] | 1.14 | 1.09 | 1.36 | 0.972 | –
34 | OC[C@H]1O[C@@](CO)(O[C@H]2O[C@H](CO)[C@@H](O)[C@H](O)[C@H]2O)[C@@H](O)[C@@H]1O [Sucrose] | 0.818 | 0.989 | 0.924 | 1.26 | –
35 | OCC(CO)(CBr)CBr [2,2-Bis(bromomethyl)-1,3-propanediol] | 1.18 | 0.867 | 0.858 | 0.83 | –
36 | NC(=O)c1nc(-c2cccc(-c3cc(F)ccc3OCC(F)(F)C(F)(F)F)c2)n[n-]1.O.[K+] | 1.08 | 0.937 | 0.551 | – | –
37 | COCCOCCOC [Bis(2-methoxyethyl) ether] | 1.06 | 0.871 | 0.862 | 1.42 | –
38 | CCCCC(CC)COC(=O)CCCCCCCCC(=O)OCC(CC)CCCC (stereo not drawn) [Bis(2-ethylhexyl) decanedioate] | 0.935 | 1.08 | 1.07 | 1.12 | –
39 | CCCCCCCC/C=C\CCCCCCCC(=O)OC[C@@H](O)[C@H]1OC[C@H](O)[C@H]1O [Sorbitan, mono-(9Z)-9-octadecenoate] | 1.02 | 1 | 0.875 | 1.03 | –
40 | CC(C)(C)c1csc(-c2cc3cc(OCc4ccccc4CC(=O)O)ccc3o2)n1 | 1.02 | 1.04 | 0.758 | – | –
41 | OCCOCCOCCO [Triethylene glycol] | 0.815 | 1.04 | 1.07 | 1.32 | –
42 | NC(N)=O | 0.93 | 1.14 | 1.14 | 1.14 | –

Row | Structure (SMILES) | Wnt reporter firefly/Renilla luciferase ratio (concentration: 0.1 uM) | Wnt reporter firefly/Renilla luciferase ratio (concentration: 1 uM) | Wnt reporter firefly/Renilla luciferase ratio (concentration: 10 uM) | Wnt reporter firefly/Renilla luciferase ratio (concentration: 100 uM) | Wnt reporter firefly/Renilla luciferase ratio (concentration: 0.01 uM)
43 | CC(C)C(=O)OCC(C)(C)C(OC(=O)C(C)C)C(C)C (stereo not drawn) [2,2,4-Trimethyl-1,3-pentanediol diisobutyrate] | 0.92 | 0.885 | 1.15 | 1.64 | –
44 | c1ccc(C(O[C@@H]2CCCN(CCc3ccc4c(c3)OCO4)C2)c2ccccc2)cc1 [Zamifenacin] | 1.15 | 1.05 | 0.996 | 1.13 | –
45 | CN(C)C(=O)Nc1ccc(Cl)c(Cl)c1 [Diuron] | 0.989 | 0.948 | 1.41 | 0.198 | 1.43
46 | O=c1[nH]sc2ccccc12 [1,2-Benzisothiazolin-3-one] | 1.11 | 1.1 | 0.988 | – | –
47 | Cn1cnc2c1c(=O)[nH]c(=O)n2C [Theobromine] | 1.3 | 1.08 | 1.06 | 0.963 | –
48 | CCc1c(C(=O)NN2CCCCC2)nn(-c2ccc(Cl)cc2Cl)c1-c1ccc(Br)cc1 [Surinabant] | 0.958 | 0.986 | 0.432 | 0.215 | –
49 | COc1cccc(-c2ccc(/C=C\CN3CCCCCC3)cc2Cl)c1.Cl | 1.12 | 1.1 | 1.04 | 0.826 | –
50 | O=c1c(-c2ccc(O)cc2)coc2cc(O)cc(O)c12 [Genistein] | 1.45 | 1.16 | 0.958 | 0.631 | 1.71
51 | OCC(CO)n1cnc(-c2ccc(F)cc2)c1-c1ccnc(Oc2ccccc2)n1 | 0.889 | 0.465 | 0.41 | 0.356 | –
52 | CC(COCC(C)OC(=O)c1ccccc1)OC(=O)c1ccccc1 (stereo not drawn) [Di(propylene glycol) dibenzoate] | 1.25 | 1.23 | 1.18 | 1.44 | –
53 | CC/C(=C\C(=N/O)C(N)=O)C(C)[N+](=O)[O-] (stereo not drawn) | 0.874 | 1.09 | 1.05 | 1.4 | –
54 | CC(=O)CC(C)(C)O [Diacetone alcohol] | 0.954 | 1.16 | 1.1 | 1.13 | –
55 | Cc1ccc(-c2cc(C(F)(F)F)nn2-c2ccc(S(N)(=O)=O)cc2)cc1 [Celecoxib] | 1.44 | 1.02 | 1.04 | 0.889 | –
56 | CCCCCCCCCCO [1-Decanol] | 1.01 | 1.15 | 1.22 | 1.47 | –
57 | CC(C)(C)c1cccc(C(C)(C)C)c1O [2,6-Di-tert-butylphenol] | – | – | – | 1.72 | –
58 | COC(=O)CCCCC(=O)OC [Dimethyl adipate] | 1.03 | 1.21 | 0.848 | 1.23 | –
59 | CC(C)(O)c1coc(S(=O)(=O)NC(=O)Nc2c3c(cc4c2CCC4)CCC3)c1 | 1.04 | 0.761 | 0.902 | 0.531 | –
60 | O=Cc1ccccc1C=O [1,2-Benzenedicarboxaldehyde] | 1.16 | 1.01 | 1.07 | 1.18 | –
61 | CCCCCCCCCCCCO [1-Dodecanol] | 1.03 | 1.11 | 1.12 | 1.11 | –
62 | CC(=O)O[C@]1(C(C)=O)CC[C@H]2[C@@H]3C=C(Cl)C4=CC(=O)[C@@H]5C[C@@H]5[C@]4(C)[C@H]3CC[C@@]21C [Cyproterone acetate] | 1.13 | 1.08 | 0.97 | 0.502 | –
